{"sequences": {"note": "By UniProt entry, the sequences of proteins in these tests, tags left out. Where a name states a change or a piece, a line headed by the entry shows the natural chain unless it says otherwise.", "UniProt P01100": "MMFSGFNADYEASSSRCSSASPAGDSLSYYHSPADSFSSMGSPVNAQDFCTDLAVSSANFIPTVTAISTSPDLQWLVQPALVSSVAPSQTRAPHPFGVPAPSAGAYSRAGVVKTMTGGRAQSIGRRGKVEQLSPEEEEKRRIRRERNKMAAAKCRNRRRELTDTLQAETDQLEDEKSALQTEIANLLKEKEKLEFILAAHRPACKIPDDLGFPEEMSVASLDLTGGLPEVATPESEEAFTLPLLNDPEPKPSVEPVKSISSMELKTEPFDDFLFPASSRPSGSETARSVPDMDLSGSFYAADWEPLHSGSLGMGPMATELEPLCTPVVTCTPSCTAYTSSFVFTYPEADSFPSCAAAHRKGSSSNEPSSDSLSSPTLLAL"}, "source": "paper PMC4741484", "key": {"Flag-tagged KDM2A": {"molecular_target": "T1, Flag-tagged KDM2A (UniProt Q9Y2K7)", "T1 sequence": "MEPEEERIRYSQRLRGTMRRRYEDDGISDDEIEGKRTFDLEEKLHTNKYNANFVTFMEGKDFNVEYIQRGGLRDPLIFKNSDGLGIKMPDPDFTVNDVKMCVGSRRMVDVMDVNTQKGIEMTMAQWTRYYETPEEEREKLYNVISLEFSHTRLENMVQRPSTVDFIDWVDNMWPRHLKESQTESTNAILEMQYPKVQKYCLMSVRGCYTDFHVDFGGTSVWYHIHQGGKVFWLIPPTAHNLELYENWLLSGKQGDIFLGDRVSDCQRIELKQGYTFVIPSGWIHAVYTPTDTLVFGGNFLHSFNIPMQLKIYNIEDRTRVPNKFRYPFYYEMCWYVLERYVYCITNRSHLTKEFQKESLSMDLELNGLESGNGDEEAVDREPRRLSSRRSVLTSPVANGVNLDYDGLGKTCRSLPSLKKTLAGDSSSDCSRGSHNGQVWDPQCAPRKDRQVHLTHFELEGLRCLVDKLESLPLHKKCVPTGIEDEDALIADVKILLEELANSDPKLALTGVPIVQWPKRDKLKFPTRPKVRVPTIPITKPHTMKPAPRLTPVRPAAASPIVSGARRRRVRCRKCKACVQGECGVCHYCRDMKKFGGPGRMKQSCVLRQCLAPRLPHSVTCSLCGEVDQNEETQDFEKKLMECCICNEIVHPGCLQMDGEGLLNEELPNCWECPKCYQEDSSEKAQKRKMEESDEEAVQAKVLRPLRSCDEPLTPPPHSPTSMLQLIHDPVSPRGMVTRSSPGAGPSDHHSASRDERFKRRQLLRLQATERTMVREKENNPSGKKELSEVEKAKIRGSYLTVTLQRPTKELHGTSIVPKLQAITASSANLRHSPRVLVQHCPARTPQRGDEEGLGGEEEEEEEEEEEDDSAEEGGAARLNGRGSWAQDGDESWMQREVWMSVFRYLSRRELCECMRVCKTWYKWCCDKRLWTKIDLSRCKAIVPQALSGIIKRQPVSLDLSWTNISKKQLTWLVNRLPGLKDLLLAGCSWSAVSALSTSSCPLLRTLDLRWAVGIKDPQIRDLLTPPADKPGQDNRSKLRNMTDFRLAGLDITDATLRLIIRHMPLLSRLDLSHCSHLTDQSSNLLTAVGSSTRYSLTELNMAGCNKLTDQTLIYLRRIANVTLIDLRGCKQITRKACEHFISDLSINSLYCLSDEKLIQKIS", "assay": "co-IP; Myc-tagged c-Fos and Flag-tagged demethylase co-transfected into HEK293T cells; Co-IP with anti-Myc and anti-Flag antibodies, immunoblotting with anti-Myc"}, "GST-KDM2A": {"molecular_target": "T2, GST-KDM2A (UniProt Q9Y2K7)", "T2 sequence": "T1 sequence", "assay": "pull-down; GST pull-down: purified His fusion proteins and GST-KDM2A (or GST) purified from bacteria, glutathione-Sepharose 4B beads; washed with TENT buffer (0.5% Nonidet P-40, 20 mM Tris pH 7.4, 0.1 mM EDTA, 300 mM NaCl); Western blotting with anti-GST antibody and Coomassie staining; both purified"}, "[1]": {"molecular_target": "T3, KDM2A (endogenous) (human (endogenous in H719 and H460)) (UniProt Q9Y2K7)", "T3 sequence": "T1 sequence", "assay": "co-IP; endogenous proteins, H719 cells without or with TPA (100 ng/mL, 2 hrs); lysis in 1% NP-40, 150 mM NaCl, 50 mM Tris, 0.05% SDS; IP with anti-c-Fos or with anti-KDM2A, Western blotting with anti-KDM2A or anti-c-Fos"}}, "note": "These are yes or no findings as the source states them, for the method shown. For some of these results: Binding seen in cells or lysates may run through a third protein. Some results given as binding are weak or reduced against the parent protein; the word gives no strength. For some of these results: Tags and fused reporters may be left off the sequences shown.", "data": [{"substance": "Myc-tagged c-Fos (from UniProt P01100 1-380)", "values": [{"measurement": "binding", "setting": "Flag-tagged KDM2A", "result": "binds"}]}, {"substance": "His-tagged c-Fos, full length (FL) (from UniProt P01100 1-380)", "values": [{"measurement": "binding", "setting": "GST-KDM2A", "result": "binds"}]}, {"substance": "c-Fos (endogenous) (from UniProt P01100 1-380)", "values": [{"measurement": "binding", "setting": "[1]", "result": "binds"}]}, {"substance": "His-c-Fos middle fragment (aa 137-200) (from UniProt P01100 137-200) (domain or fragment)", "values": [{"measurement": "binding", "setting": "GST-KDM2A", "result": "binds"}]}]}
